From EP4554620A1 come the findings set out here.

These are yes or no findings as the source states them, for the method shown. A result given as binding can be weak or reduced; the word gives no strength.

Test [1] has as its target Human TIGIT residues 23-128 with C-terminal HIS tag (human). In words: co-crystal structure (figure legend).
Test [2] has the same target. In words: co-crystal structure; complex purified by gel filtration. In general terms: In gel filtration, larger molecules generally elute earlier.

B1: A1217 (Ociperlimab) Fab (Fab, V domains shown)
VH: EVQLVESGGGLVQPGGSLRLSCAASGFTFSDYYMYWVRQAPGKGLEWVAYITKGGGSTYYPDSVKGRFTISRDNAKNTLYLQMNSLRAEDTAVYYCARQTNYDFTMDYWGQGTLVTVSS
VL: EIVMTQSPATLSVSPGERATLSCKASQDVGTSVAWYQQKPGQAPRLLIYWASARHTGIPARFSGSGSGTEFTLTISSLQSEDFAVYYCQQYSSYPLTFGGGTKVEIK
Take B1: the binding result in test [1] and in test [2] was “binds” each time.
